# Source: the supplement of paper PMC8728848
# The list shows a part of the results.
# B1: RbmA (Vibrio cholerae), A0A2H4NFB8 (protein)
# chain: MSNFKGSIMNKRHYYLASCLALLFSTASYAEVDCELQPVIEANLSLNQNQLASNGGYISSQLGIRNESCETVKFKYWLSIKGPEGIYFPAKAVVGVDTAQQESDALTDGRMLNVTRGFWVPEYMADGKYTVSLQVVAENGEVFKANQEFVKGGDLNSLPELNGLTIDIKNQFGINSVESTGGFVPFTIDLNNGREGEAKVEFWMTAVGPDGLIIPVHSREKWMIIAGNTFSKVRGINFDKSYPAGEYTINAQVVDIVSGERVEQLMTVVKK
# What was measured:
# Assay in all cases: glycan array binding signal (z-score within array); higher = stronger binding
# Conditions in all cases: glycan notation: IUPAC condensed, linker removed
# [1] = biological target: Man(a1-3)[Man(a1-6)]Man
# Outline: (§1)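 Glycan array data came from 3228 arrays in the Consortium for Functional Glycomics database, and only arrays with an available protein sequence were kept. Glycan names were put into IUPAC-condensed notation, and columns mapping to the same glycan were averaged. The binding signal is a within-array Z-score, averaged across arrays of one protein sequence run at different concentrations or buffers and across linkers. A negative Z-score can be read as non-binding.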
# [2] = biological target: Man(a1-3)[Man(a1-6)]Man(a1-6)[Man(a1-2)Man(a1-3)]Man(b1-4)GlcNAc(b1-4)GlcNAc
# Outline: as §1
# [3] = biological target: Man(a1-3)[Man(a1-6)]Man(a1-6)[Man(a1-3)]Man
# Outline: as §1
# [4] = biological target: Man(a1-3)[Man(a1-6)]Man(a1-6)[Man(a1-3)]Man(b1-4)GlcNAc(b1-4)GlcNAc
# Outline: as §1
# [5] = biological target: Man(a1-3)[Man(a1-6)]Man(b1-4)GlcNAc(b1-4)GlcNAc
# Outline: as §1
# [6] = biological target: Man(a1-3)[Man(a1-6)]Man(b1-4)GlcNAc(b1-4)[Fuc(a1-6)]GlcNAc
# Outline: as §1
# [7] = biological target: Man(a1-6)Man
# Outline: as §1
# [8] = biological target: Man(b1-4)GlcNAc
# Outline: as §1
# [9] = biological target: Neu5Ac(a2-3)Gal
# Outline: as §1
# [10] = biological target: Neu5Ac(a2-3)Gal(b1-3)GalNAc
# Outline: as §1
# [11] = biological target: Neu5Ac(a2-3)Gal(b1-3)GalNAc(b1-3)Gal(a1-4)Gal(b1-4)Glc
# Outline: as §1
# [12] = biological target: Neu5Ac(a2-3)Gal(b1-3)GalNAc(b1-4)[Neu5Ac(a2-3)]Gal(b1-4)Glc
# Outline: as §1
# [13] = biological target: Neu5Ac(a2-3)Gal(b1-3)GalNAc(b1-4)[Neu5Ac(a2-8)Neu5Ac(a2-3)]Gal(b1-4)Glc
# Outline: as §1
# [14] = biological target: Neu5Ac(a2-3)Gal(b1-3)GalNAc6S
# Outline: as §1
# [15] = biological target: Neu5Ac(a2-3)Gal(b1-3)GlcNAc
# Outline: as §1
# [16] = biological target: Neu5Ac(a2-3)Gal(b1-3)GlcNAc(b1-2)Man
# Outline: as §1
# [17] = biological target: Neu5Ac(a2-3)Gal(b1-3)GlcNAc(b1-2)Man(a1-3)[GlcNAc(b1-4)][Neu5Ac(a2-3)Gal(b1-3)GlcNAc(b1-2)Man(a1-6)]Man(b1-4)GlcNAc(b1-4)GlcNAc
# Outline: as §1
# [18] = biological target: Neu5Ac(a2-3)Gal(b1-3)GlcNAc(b1-2)Man(a1-3)[Neu5Ac(a2-3)Gal(b1-3)GlcNAc(b1-2)Man(a1-6)]Man(b1-4)GlcNAc(b1-4)GlcNAc
# Outline: as §1
# [19] = biological target: Neu5Ac(a2-3)Gal(b1-3)GlcNAc(b1-3)Gal(b1-3)GlcNAc
# Outline: as §1
# [20] = biological target: Neu5Ac(a2-3)Gal(b1-3)GlcNAc(b1-3)Gal(b1-4)GlcNAc
# Outline: as §1
# [21] = biological target: Neu5Ac(a2-3)Gal(b1-3)GlcNAc(b1-3)GalNAc
# Outline: as §1
# [22] = biological target: Neu5Ac(a2-3)Gal(b1-3)GlcNAc(b1-4)Gal(b1-4)Glc
# Outline: as §1
# [23] = biological target: Neu5Ac(a2-3)Gal(b1-3)GlcNAc(b1-6)GalNAc
# Outline: as §1
# [24] = biological target: Neu5Ac(a2-3)Gal(b1-3)GlcNAc6S
# Outline: as §1
# [25] = biological target: Neu5Ac(a2-3)Gal(b1-3)[Fuc(a1-4)]GlcNAc
# Outline: as §1
# [26] = biological target: Neu5Ac(a2-3)Gal(b1-3)[Fuc(a1-4)]GlcNAc(b1-3)Gal(b1-3)[Fuc(a1-4)]GlcNAc
# Outline: as §1
# [27] = biological target: Neu5Ac(a2-3)Gal(b1-3)[Fuc(a1-4)]GlcNAc(b1-3)Gal(b1-4)[Fuc(a1-3)]GlcNAc
# Outline: as §1
# [28] = biological target: Neu5Ac(a2-3)Gal(b1-3)[GlcNAc(b1-6)]GalNAc
# Outline: as §1
# [29] = biological target: Neu5Ac(a2-3)Gal(b1-3)[Neu5Ac(a2-6)]GalNAc
# Outline: as §1
# [30] = biological target: Neu5Ac(a2-3)Gal(b1-3)[Neu5Ac(a2-6)]GlcNAc(b1-3)[Fuc(a1-3)[Gal(b1-4)]GlcNAc(b1-6)]Gal(b1-4)Glc
# Outline: as §1
# [31] = biological target: Neu5Ac(a2-3)Gal(b1-3)]Neu5Ac(a2-3)Gal(b1-4)]GlcNAc
# Outline: as §1
# [32] = biological target: Neu5Ac(a2-3)Gal(b1-4)Glc
# Outline: as §1
# [33] = biological target: Neu5Ac(a2-3)Gal(b1-4)GlcNAc
# Outline: as §1
# [34] = biological target: Neu5Ac(a2-3)Gal(b1-4)GlcNAc(b1-2)Man
# Outline: as §1
# [35] = biological target: Neu5Ac(a2-3)Gal(b1-4)GlcNAc(b1-2)Man(a1-3)[GlcNAc(b1-4)][Neu5Ac(a2-3)Gal(b1-4)GlcNAc(b1-2)Man(a1-6)]Man(b1-4)GlcNAc(b1-4)GlcNAc
# Outline: as §1
# [36] = biological target: Neu5Ac(a2-3)Gal(b1-4)GlcNAc(b1-2)Man(a1-3)[Neu5Ac(a2-3)Gal(b1-4)GlcNAc(b1-2)Man(a1-6)]Man(b1-4)GlcNAc(b1-4)GlcNAc
# Outline: as §1
# [37] = biological target: Neu5Ac(a2-3)Gal(b1-4)GlcNAc(b1-2)Man(a1-3)[Neu5Ac(a2-3)Gal(b1-4)GlcNAc(b1-2)Man(a1-6)]Man(b1-4)GlcNAc(b1-4)[Fuc(a1-6)]GlcNAc
# Outline: as §1
# [38] = biological target: Neu5Ac(a2-3)Gal(b1-4)GlcNAc(b1-2)Man(a1-3)[Neu5Ac(a2-6)Gal(b1-4)GlcNAc(b1-2)Man(a1-6)]Man(b1-4)GlcNAc(b1-4)GlcNAc
# Outline: as §1
binder,measurement,setting,value
B1,glycan array binding signal (z-score),[1],0.76
same,glycan array binding signal (z-score),[2],-0.755
same,glycan array binding signal (z-score),[3],-0.166
same,glycan array binding signal (z-score),[4],-0.909
same,glycan array binding signal (z-score),[5],-0.548
same,glycan array binding signal (z-score),[6],-0.315
same,glycan array binding signal (z-score),[7],-0.678
same,glycan array binding signal (z-score),[8],-0.294
same,glycan array binding signal (z-score),[9],0.218
same,glycan array binding signal (z-score),[10],0.069
same,glycan array binding signal (z-score),[11],-0.315
same,glycan array binding signal (z-score),[12],-0.785
same,glycan array binding signal (z-score),[13],-0.82
same,glycan array binding signal (z-score),[14],-0.14
same,glycan array binding signal (z-score),[15],-0.006
same,glycan array binding signal (z-score),[16],0.176
same,glycan array binding signal (z-score),[17],-0.908
same,glycan array binding signal (z-score),[18],-0.364
same,glycan array binding signal (z-score),[19],-0.516
same,glycan array binding signal (z-score),[20],-0.515
same,glycan array binding signal (z-score),[21],0.638
same,glycan array binding signal (z-score),[22],-0.341
same,glycan array binding signal (z-score),[23],-0.144
same,glycan array binding signal (z-score),[24],-0.198
same,glycan array binding signal (z-score),[25],-1.17
same,glycan array binding signal (z-score),[26],1.84
same,glycan array binding signal (z-score),[27],-1.06
same,glycan array binding signal (z-score),[28],1.15
same,glycan array binding signal (z-score),[29],0.382
same,glycan array binding signal (z-score),[30],2.23
same,glycan array binding signal (z-score),[31],-0.113
same,glycan array binding signal (z-score),[32],-0.613
same,glycan array binding signal (z-score),[33],-0.847
same,glycan array binding signal (z-score),[34],3.52
same,glycan array binding signal (z-score),[35],-1.01
same,glycan array binding signal (z-score),[36],0.712
same,glycan array binding signal (z-score),[37],1.49
same,glycan array binding signal (z-score),[38],-0.395

# Some of the entries so far, with tabs:
binder	measurement	setting	value
B1	glycan array binding signal (z-score)	[17]	-0.908
same	glycan array binding signal (z-score)	[38]	-0.395
